Results on 5 molecules are retold here after article PMC10460901.

Sequences of proteins named here, by UniProt entry; tags and fusion partners are left off. A change or cut given only in a name is not applied to a line headed by its entry.
UniProt P48436: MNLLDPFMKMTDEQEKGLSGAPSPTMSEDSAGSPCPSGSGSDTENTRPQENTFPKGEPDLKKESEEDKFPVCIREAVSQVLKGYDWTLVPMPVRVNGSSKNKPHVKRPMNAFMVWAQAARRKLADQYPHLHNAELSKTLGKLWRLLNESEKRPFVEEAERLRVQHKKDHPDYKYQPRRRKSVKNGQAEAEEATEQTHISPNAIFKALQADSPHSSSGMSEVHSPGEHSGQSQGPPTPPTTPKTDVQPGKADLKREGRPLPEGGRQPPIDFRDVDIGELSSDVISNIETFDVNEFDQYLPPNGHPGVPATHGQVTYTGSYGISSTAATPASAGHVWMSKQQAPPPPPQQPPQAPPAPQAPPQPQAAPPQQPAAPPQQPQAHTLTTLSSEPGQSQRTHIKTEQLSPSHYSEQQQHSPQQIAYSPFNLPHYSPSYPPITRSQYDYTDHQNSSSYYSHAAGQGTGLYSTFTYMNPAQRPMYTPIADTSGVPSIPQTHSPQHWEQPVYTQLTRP
UniProt Q96KQ7: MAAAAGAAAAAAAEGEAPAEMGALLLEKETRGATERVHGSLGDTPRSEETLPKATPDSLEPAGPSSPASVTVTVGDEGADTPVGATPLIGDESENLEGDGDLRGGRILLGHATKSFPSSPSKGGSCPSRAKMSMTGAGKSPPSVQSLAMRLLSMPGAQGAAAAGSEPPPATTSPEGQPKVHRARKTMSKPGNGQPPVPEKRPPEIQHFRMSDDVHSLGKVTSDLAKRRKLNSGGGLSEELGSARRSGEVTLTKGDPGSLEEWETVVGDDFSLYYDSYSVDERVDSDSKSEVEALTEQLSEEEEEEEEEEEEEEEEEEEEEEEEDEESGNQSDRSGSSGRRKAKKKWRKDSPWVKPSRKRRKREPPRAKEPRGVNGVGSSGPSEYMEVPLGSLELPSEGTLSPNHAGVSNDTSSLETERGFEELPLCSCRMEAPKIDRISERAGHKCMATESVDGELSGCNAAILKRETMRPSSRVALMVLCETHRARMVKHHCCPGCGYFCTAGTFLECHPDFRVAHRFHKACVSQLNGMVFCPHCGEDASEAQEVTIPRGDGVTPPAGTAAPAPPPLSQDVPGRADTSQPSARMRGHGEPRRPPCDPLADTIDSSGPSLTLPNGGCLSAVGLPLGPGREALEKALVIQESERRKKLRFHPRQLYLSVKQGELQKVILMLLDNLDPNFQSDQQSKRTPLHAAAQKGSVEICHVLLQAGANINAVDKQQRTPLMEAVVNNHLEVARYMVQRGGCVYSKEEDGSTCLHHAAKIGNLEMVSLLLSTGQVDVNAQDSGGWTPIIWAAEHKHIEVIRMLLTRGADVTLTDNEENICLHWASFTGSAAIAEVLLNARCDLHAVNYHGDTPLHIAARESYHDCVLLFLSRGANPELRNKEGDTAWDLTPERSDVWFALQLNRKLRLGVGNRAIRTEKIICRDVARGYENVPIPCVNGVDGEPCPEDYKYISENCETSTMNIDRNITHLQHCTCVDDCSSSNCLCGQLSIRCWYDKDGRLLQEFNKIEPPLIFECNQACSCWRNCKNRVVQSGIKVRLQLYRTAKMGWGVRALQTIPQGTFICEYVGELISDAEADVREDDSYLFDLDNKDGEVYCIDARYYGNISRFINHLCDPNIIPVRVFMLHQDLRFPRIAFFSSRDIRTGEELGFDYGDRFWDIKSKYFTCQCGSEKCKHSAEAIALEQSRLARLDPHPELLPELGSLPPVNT

Results are given in words; binding and its absence hold for the method and conditions named. In cells and extracts the contact can be indirect. Some results given as binding are weak or reduced against the parent protein; the word gives no strength. For some assays here: Sequences can lack the tags named with a protein.

The target in experiment [1] is MYC‐tagged SOX9 (MYC‐SOX9), in HEK293T cells (UniProt P48436). As to the kind of experiment: co-IP; protein extracts of HeLa or HEK293T cells transfected with MYC-SOX9; MYC antibody for immunoprecipitation, immunoblotting.
Experiment [2] deals with SOX9 (sex‐determining region Y‐type high‐mobility group box protein 9) (not stated (endogenous in DPSCs)) (UniProt P48436). As to the kind of experiment: co-IP; DPSC protein extracts treated with RNase A (10 µg mL^-1); SOX9 antibody for immunoprecipitation, immunoblotting for KDM3A and G9A. Background: In western blotting, separated proteins are transferred to a membrane and probed.

The target of experiment [3] is MYC‐tagged SOX9 (MYC‐SOX9), in HeLa cells (UniProt P48436). As to the kind of experiment: co-IP; protein extracts of HeLa or HEK293T cells transfected with MYC-SOX9; MYC antibody for immunoprecipitation, immunoblotting.
Experiment [4] concerns the target bacterially purified MYC‐SOX9 (UniProt P48436). The experiment can be described thus: pull-down; purified MYC-SOX9 or MYC peptide loaded onto MYC-magnetic beads, then incubated with in vitro transcribed/translated FLAG-KDM3A or FLAG-G9A; western blotting; only the target purified.

In the case of “G9A in HEK293T cells (from UniProt Q96KQ7 1-1210) (enzyme)”, the binding entry in experiment [1] is reported as “binds”.

B1: Lysine demethylase 3A (KDM3A) (enzyme, UniProt Q9Y4C1 1-1321)
chain: MVLTLGESWPVLVGRRFLSLSAADGSDGSHDSWDVERVAEWPWLSGTIRAVSHTDVTKKDLKVCVEFDGESWRKRRWIEVYSLLRRAFLVEHNLVLAERKSPEISERIVQWPAITYKPLLDKAGLGSITSVRFLGDQQRVFLSKDLLKPIQDVNSLRLSLTDNQIVSKEFQALIVKHLDESHLLKGDKNLVGSEVKIYSLDPSTQWFSATVINGNPASKTLQVNCEEIPALKIVDPSLIHVEVVHDNLVTCGNSARIGAVKRKSSENNGTLVSKQAKSCSEASPSMCPVQSVPTTVFKEILLGCTAATPPSKDPRQQSTPQAANSPPNLGAKIPQGCHKQSLPEEISSCLNTKSEALRTKPDVCKAGLLSKSSQIGTGDLKILTEPKGSCTQPKTNTDQENRLESVPQALTGLPKECLPTKASSKAELEIANPPELQKHLEHAPSPSDVSNAPEVKAGVNSDSPNNCSGKKVEPSALACRSQNLKESSVKVDNESCCSRSNNKIQNAPSRKSVLTDPAKLKKLQQSGEAFVQDDSCVNIVAQLPKCRECRLDSLRKDKEQQKDSPVFCRFFHFRRLQFNKHGVLRVEGFLTPNKYDNEAIGLWLPLTKNVVGIDLDTAKYILANIGDHFCQMVISEKEAMSTIEPHRQVAWKRAVKGVREMCDVCDTTIFNLHWVCPRCGFGVCVDCYRMKRKNCQQGAAYKTFSWLKCVKSQIHEPENLMPTQIIPGKALYDVGDIVHSVRAKWGIKANCPCSNRQFKLFSKPASKEDLKQTSLAGEKPTLGAVLQQNPSVLEPAAVGGEAASKPAGSMKPACPASTSPLNWLADLTSGNVNKENKEKQPTMPILKNEIKCLPPLPPLSKSSTVLHTFNSTILTPVSNNNSGFLRNLLNSSTGKTENGLKNTPKILDDIFASLVQNKTTSDLSKRPQGLTIKPSILGFDTPHYWLCDNRLLCLQDPNNKSNWNVFRECWKQGQPVMVSGVHHKLNSELWKPESFRKEFGEQEVDLVNCRTNEIITGATVGDFWDGFEDVPNRLKNEKEPMVLKLKDWPPGEDFRDMMPSRFDDLMANIPLPEYTRRDGKLNLASRLPNYFVRPDLGPKMYNAYGLITPEDRKYGTTNLHLDVSDAANVMVYVGIPKGQCEQEEEVLKTIQDGDSDELTIKRFIEGKEKPGALWHIYAAKDTEKIREFLKKVSEEQGQENPADHDPIHDQSWYLDRSLRKRLHQEYGVQGWAIVQFLGDVVFIPAGAPHQVHNLYSCIKVAEDFVSPEHVKHCFWLTQEFRYLSQTHTNHEDKLQVKNVIYHAVKDAVAMLKASESSFGKP
Turning to B1, the binding result in experiment [2] is on record as “binds”.

B2: KDM3A in HEK293T cells (enzyme, UniProt Q9Y4C1 1-1321)
chain: B1 chain
Take B2: the binding result in experiment [1] is “binds”.

B3: KDM3A in HeLa cells (enzyme, UniProt Q9Y4C1 1-1321)
chain: B1 chain
In the case of B3, the binding result in experiment [3] was “binds”.

B4: FLAG‐KDM3A (enzyme, UniProt Q9Y4C1 1-1321)
chain: B1 chain
Consider B4, for which the binding result in experiment [4] is recorded as “binds”.
